Source: patent US4672068A, “Antihypertensive 1,4-dihydropyridines having a conjugated ester” (Fujirebio Kabushiki Kaisha, priority 1984, dated 1987)

Test system: Male spontaneously hypertensive rats (SHR), arterial blood pressure
Assay: Depressor response after intraduodenal administration (1 mg/kg), Table 2
Format: in vivo, rat
Details: '120<' means greater than 120
Procedure: Arterial blood pressure was measured through the catherized artery with a pressure transducer (MPU-0.5, manufactured by Nihon Kohden Kabushiki Kaisha). The catheter was inserted into the abdominal aorta via the median coccygcal artery of SHR under light ether anesthesia. The recordings were made on a rectigraph (manufactured by Sanei Sokki Kabushiki Kaisha). The 1,4-dihydropyridine derivatives prepared in the foregoing examples were administered with catheter which was inserted previously into the caudal vein or duodenum at least two hours after the operation. SHR were restrained with wire mesh cage immediately after the operation.

Q: With `COC(=O)C1=C(C)NC(C)=C(C(=O)OC)C1c1ccccc1[N+](=O)[O-]` [A, 4-(o-nitrophenyl)-2,6-dimethyl-1,4-dihydropyridine-3,5-dicarboxylic acid dimethyl ester, reference compound] as the compound, how does the Half-life read?
A: The Half-life was 20.0 min.
